Our source for the binding values is publication PMC7105381.

Amino acid sequences for entries named in this document (tags omitted). A change or cut given only in a name is not applied to a line headed by its entry.
UniProt F2DCT9: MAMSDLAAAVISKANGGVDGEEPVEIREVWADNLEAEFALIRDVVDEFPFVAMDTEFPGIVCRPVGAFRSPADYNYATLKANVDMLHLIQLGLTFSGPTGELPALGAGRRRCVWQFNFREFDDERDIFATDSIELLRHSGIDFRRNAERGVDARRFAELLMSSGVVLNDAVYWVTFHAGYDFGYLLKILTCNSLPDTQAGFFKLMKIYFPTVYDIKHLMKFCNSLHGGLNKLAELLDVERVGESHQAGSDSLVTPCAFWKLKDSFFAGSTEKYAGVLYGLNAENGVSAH
UniProt F2EF82: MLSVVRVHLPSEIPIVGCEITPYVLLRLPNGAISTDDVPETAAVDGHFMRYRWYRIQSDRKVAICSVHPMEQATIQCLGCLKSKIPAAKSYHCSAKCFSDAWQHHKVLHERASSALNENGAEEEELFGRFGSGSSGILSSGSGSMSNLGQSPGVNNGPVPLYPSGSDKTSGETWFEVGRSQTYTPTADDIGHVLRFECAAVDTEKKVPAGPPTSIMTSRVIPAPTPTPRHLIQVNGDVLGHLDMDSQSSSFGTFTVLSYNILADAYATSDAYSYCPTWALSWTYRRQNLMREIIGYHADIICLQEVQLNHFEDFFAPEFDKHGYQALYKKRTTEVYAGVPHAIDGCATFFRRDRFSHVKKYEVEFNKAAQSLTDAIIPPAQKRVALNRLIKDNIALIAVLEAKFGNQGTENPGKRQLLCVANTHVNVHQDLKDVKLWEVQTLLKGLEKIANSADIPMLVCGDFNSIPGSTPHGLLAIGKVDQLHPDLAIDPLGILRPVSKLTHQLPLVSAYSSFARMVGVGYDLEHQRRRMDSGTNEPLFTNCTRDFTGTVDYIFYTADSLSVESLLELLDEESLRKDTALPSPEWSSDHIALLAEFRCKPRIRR

This experiment has as its target MBP-HvCAF1 (barley (Hordeum vulgare)) (UniProt F2DCT9). Nature of the experiment: pull-down; MBP pull-down: CCR4-His or P-His incubated with MBP-HvCAF1 or MBP and anti-MBP beads; blots with anti-His or anti-MBP; both purified.

Results are given in words; binding and its absence hold for the method and conditions named. Binding can be weak; no strength is given.

Turning to “HvCCR4 fused with a 6 x His tag (HvCCR4-His) (from UniProt F2EF82) (enzyme)”, the binding result was “binds”.
